{"source": "PubChem BioAssay AID720505 – Drosophila RNAi Screening Center – 2013", "purpose": "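Genes needed for store-operated calcium entry in fly cells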 (primary screen)", "cells": "Drosophila S2R+ cells", "reagents": "long dsRNA against Drosophila genes", "conditions": "thapsigargin (2 µM) in calcium-free buffer to empty internal stores, then 2 mM calcium added back", "measured": "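Stores emptied by 2 µM thapsigargin without calcium, then 2 mM calcium re-added; fluo-4 fluorescence followed by FLIPR in 384-well plates, per-well averaged endpoint, raw; two screen passes, some wells retested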", "scale": "calcium signal and retest calcium signal: higher = more calcium entry after store depletion", "rule for the call": "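About 1500 genes called as lowering calcium entry, by varying amounts, judged against per-plate control wells with STIM1 as positive and Rho1 as negative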", "meaning of the calls": "active = called as lowering calcium entry; inactive = not called", "note": "The deposit covers about 20,000 reagents; this is a random part of those with a known target gene and a result. Of all reagents, about 2,100 (10%) got an active call. 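Raw plate signals without normalisation; calls rest on control-based scores that were not deposited; replicate 2 separates called from uncalled poorly.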 Entries without a mark were called inactive. The numbers tell different reagents against one gene apart. Reagent sequences are not shown. Not given: the amount of reagent, the time to read-out."}
{"Target gene": "CG15256", "reagent no.": 1, "calcium signal, replicate 1": 137, "calcium signal, replicate 2": 121}
{"Target gene": "CG15256", "reagent no.": 2, "calcium signal, replicate 1": 167, "calcium signal, replicate 2": 156}
{"Target gene": "corolla", "reagent no.": 1, "calcium signal, replicate 1": 163, "calcium signal, replicate 2": 99.1}
{"Target gene": "RpL36", "reagent no.": 1, "calcium signal, replicate 1": "53.6 (active)", "calcium signal, replicate 2": 70.6}
{"Target gene": "smp-30", "reagent no.": 1, "calcium signal, replicate 1": 71.3, "calcium signal, replicate 2": 110}
{"Target gene": "scf", "reagent no.": 1, "calcium signal, replicate 1": 66.3, "calcium signal, replicate 2": 98.2}
{"Target gene": "ATPsynbetaL", "reagent no.": 1, "calcium signal, replicate 1": 101, "calcium signal, replicate 2": 188}
{"Target gene": "CG43366", "reagent no.": 1, "calcium signal, replicate 1": 130, "calcium signal, replicate 2": 183}
{"Target gene": "CG43366", "reagent no.": 2, "calcium signal, replicate 1": "89.9 (active)", "calcium signal, replicate 2": 120}
{"Target gene": "nkt", "reagent no.": 1, "calcium signal, replicate 1": 103, "calcium signal, replicate 2": 100}
{"Target gene": "CG34459", "reagent no.": 1, "calcium signal, replicate 1": 114, "calcium signal, replicate 2": 112}
{"Target gene": "ogre", "reagent no.": 1, "calcium signal, replicate 1": 136, "calcium signal, replicate 2": 105}
{"Target gene": "CG44433", "reagent no.": 1, "calcium signal, replicate 1": 165, "calcium signal, replicate 2": 161}
{"Target gene": "CG44433", "reagent no.": 2, "calcium signal, replicate 1": 134, "calcium signal, replicate 2": 120}
{"Target gene": "CG14478", "reagent no.": 1, "calcium signal, replicate 1": 122, "calcium signal, replicate 2": 152}
{"Target gene": "CG43386", "reagent no.": 1, "calcium signal, replicate 1": 135, "calcium signal, replicate 2": 88.3}
{"Target gene": "NdufV3", "reagent no.": 1, "calcium signal, replicate 1": 99, "calcium signal, replicate 2": 91.9}
{"Target gene": "TwdlW", "reagent no.": 1, "calcium signal, replicate 1": 154, "calcium signal, replicate 2": 145}
{"Target gene": "bbc", "reagent no.": 1, "calcium signal, replicate 1": 179, "calcium signal, replicate 2": 142, "retest calcium signal, replicate 1": 85.6, "retest calcium signal, replicate 2": 114}
{"Target gene": "bbc", "reagent no.": 2, "calcium signal, replicate 1": 130, "calcium signal, replicate 2": 219}

Reformatted: 2 of the entries above
| Target gene | reagent no. | calcium signal, replicate 1 | calcium signal, replicate 2 | retest calcium signal, replicate 1 | retest calcium signal, replicate 2 |
| --- | --- | --- | --- | --- | --- |
| CG44433 | 1 | 165 | 161 | – | – |
| CG44433 | 2 | 134 | 120 | – | – |
